Experimental data: article doi:10.1101/2020.04.07.031013
Results are given in words; binding and its absence hold for the method and conditions named. For part of these data: Binding seen in cells or lysates may run through a third protein. For part of these data: Binding can be weak; no strength is given. For part of these data: Sequences can lack the tags named with a protein.

How the values were obtained:
[1] = target: T1, GST-YidC1CT (Streptococcus mutans UA159) (UniProt Q8DVX3); assay: ELISA
T1 sequence: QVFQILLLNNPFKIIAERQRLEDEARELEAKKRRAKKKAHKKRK

[2] = target: T2, GST-YidC2CT (Streptococcus mutans UA159) (UniProt Q8DSP8); assay: ELISA
T2 sequence: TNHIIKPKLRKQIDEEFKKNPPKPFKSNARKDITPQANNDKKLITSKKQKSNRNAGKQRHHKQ

[3] = target: T3, YidC1 (Streptococcus mutans (endogenous in UA159)) (UniProt Q8DVX3); assay: cross-linking
T3 sequence: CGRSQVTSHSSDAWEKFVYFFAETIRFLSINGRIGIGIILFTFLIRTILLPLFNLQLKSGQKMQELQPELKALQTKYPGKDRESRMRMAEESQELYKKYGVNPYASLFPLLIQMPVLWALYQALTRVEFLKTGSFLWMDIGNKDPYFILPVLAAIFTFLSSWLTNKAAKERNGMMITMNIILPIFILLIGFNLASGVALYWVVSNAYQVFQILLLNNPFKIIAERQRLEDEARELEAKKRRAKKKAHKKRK

Row | Substance | binding [1] | binding [2] | binding [3]
1 | SecA (tested by ELISA) | no binding | no binding | 
2 | SecY (from UniProt Q8DS32) |  |  | binds
